The campaign covered roughly 360,000 compounds. About 10,000 (2.8%) were called active. Inconclusive results, whose numbers are uncertain, are shown with a selection of clear calls. Calls come from the whole dose curve; as a rule, active = well fitted inhibition curve with a large enough effect; inconclusive = small, poorly fitted or top-dose-only effect; inactive = flat fitted curve, though single readings scatter. Potencies of inconclusive entries are doubtful fits and often do not repeat.
target: Serine/threonine-protein kinase PLK1 (Homo sapiens) (UniProt P53350); assay: qHTS for Inhibitors of PLK1-PDB (polo-like kinase 1 - polo-box domain): Primary Screen; settings: Plk1 PBD binding of FITC phosphopeptide, fluorescence polarization; note: nearly all actives have a fitted effect of over 65% in size; for max response, negative = inhibition: series mostly up to about 57 µM
% is set by controls: 0 for no effect and ±100 for the full control effect; potency is the fitted concentration of half-maximal effect.

By UniProt entry, the sequences of proteins in these tests, tags left out.
UniProt P53350, whole entry, looked up: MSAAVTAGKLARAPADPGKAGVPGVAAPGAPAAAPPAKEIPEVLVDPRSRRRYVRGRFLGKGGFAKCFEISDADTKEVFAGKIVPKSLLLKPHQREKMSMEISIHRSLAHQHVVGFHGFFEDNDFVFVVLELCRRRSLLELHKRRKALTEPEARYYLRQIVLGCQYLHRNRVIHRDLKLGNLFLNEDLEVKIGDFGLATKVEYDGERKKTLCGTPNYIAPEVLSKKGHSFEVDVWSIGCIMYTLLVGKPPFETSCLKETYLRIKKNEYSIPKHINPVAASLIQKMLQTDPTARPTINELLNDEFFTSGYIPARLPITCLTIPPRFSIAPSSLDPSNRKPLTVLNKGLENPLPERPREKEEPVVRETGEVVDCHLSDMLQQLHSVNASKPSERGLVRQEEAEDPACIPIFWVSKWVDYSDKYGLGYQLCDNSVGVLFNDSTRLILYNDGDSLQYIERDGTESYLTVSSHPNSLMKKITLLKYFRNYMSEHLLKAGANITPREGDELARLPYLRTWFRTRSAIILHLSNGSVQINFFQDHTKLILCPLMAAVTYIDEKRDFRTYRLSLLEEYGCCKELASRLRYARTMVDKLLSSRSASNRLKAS

Row | SMILES | max response, negative = inhibition | Potency
1 | CCN(CC)CCCN1C(=O)C(=O)/C(=C(/O)c2ccc3c(c2)OCCO3)C1c1ccco1 (configuration not stated) | inactive: -5.59% | 
2 | OC1=C(O)c2nc3cc(C(F)(F)F)ccc3nc21 | inconclusive: -35.8% [inhibitor] | 
3 | Cc1ccc(C(OCC(O)CNCc2ccc(F)cc2)c2ccccc2)cc1 (configuration not stated) |  | inconclusive: 37.7 µM [inhibitor, single point]
4 | O=C(NNC(=S)Nc1ccccc1)c1cccc(Br)c1 |  | inconclusive: 6.7 µM [inhibitor, partial curve]
5 | N#C/C(=C\c1ccc(-c2ccccc2[N+](=O)[O-])o1)C(=O)N1CCOCC1 | inactive: -7.83% | 
6 | CCOC(=O)C(=COC(=O)c1ccccc1)NC(=O)Cc1ccccc1 |  | inconclusive: 5.32 µM [inhibitor, full curve]
7 | CCOC(=O)C1CCCN(C(=O)c2ccc3c(c2)C(C)(C)CCC3(C)C)CC1 (configuration not stated) | inactive: 1.78% | 
8 | O=C(NCCCN1CCCCC1)C1CCN(c2ncnc3c2nc2n3CCCCC2)CC1 |  | active: 26.7 µM
9 | COc1ccc(C2CC(c3ccc(Cl)cc3)Nc3nc(NC(=O)c4ccco4)nn32)cc1 (configuration not stated) | inactive: -3.91% | 
10 | COc1ccc(Cl)cc1NC(=S)N(Cc1ccc(C(=O)O)cc1)Cc1ccc(OC)c(OC)c1 |  | inconclusive: 26.7 µM [inhibitor, partial curve]
11 | CCCC1=NN2C(=N)/C(=C\c3cc(C)n(-c4cccc(C)c4)c3C)C(=O)N=C2S1 |  | inconclusive: 21.2 µM [inhibitor, partial curve]
12 | C=C1c2cccc(O)c2C(=O)C2C(=O)[C@]3(O)C(=O)C(C(N)=O)C(=O)[C@@H](N(C)C)[C@@H]3[C@@H](O)[C@H]12 (some centres not stated) |  | inconclusive: 26.7 µM [inhibitor, single point]
13 | CC1CCc2nn(CC(=O)NCc3ccco3)cc2C1 (configuration not stated) |  | active: 29.9 µM
14 | COc1ccccc1Cn1c(=S)[nH]c2ccccc2c1=O | inactive: -15.3% | 
15 | CCN1CCN(C(=S)c2ccc(OCC(=O)NCc3ccccc3)cc2)CC1 |  | active: 10.6 µM
16 | N[C@@H](C(=O)N[C@@H]1C(=O)N2C(C(=O)O)=C(Cl)CS[C@H]12)c1ccccc1 |  | active: 26.7 µM
17 | Cn1c(-c2sc(=S)n(-c3ccccc3)c2N)nc2ccccc21 |  | inconclusive: 29.9 µM [inhibitor, single point]
18 | Cc1ccc(N(CC(=O)NCC2CCCO2)C(=O)CCC(=O)Nc2ccccn2)cc1 (configuration not stated) |  | inconclusive: 21.2 µM [inhibitor, partial curve]
19 | Cc1ccc2c(c1)nnn2C1CCN(C(=O)C2CCCCC2)CC1 | inactive: -0.941% | 
20 | CN(C)CC(=O)Nc1nc(-c2ccccc2)cs1 |  | inconclusive: 21.2 µM [inhibitor, single point]
21 | O=C(N/N=C/c1cccc(Oc2ccccc2)c1)c1ccncc1 |  | inconclusive: 26.7 µM [inhibitor, single point]
22 | Cc1cc(S(=O)(=O)N2CCCC(N3CCOCC3)C2)c(C)cc1Cl (configuration not stated) |  | inconclusive: 21.2 µM [inhibitor, partial curve]
23 | COc1ccc(OC)c(Cc2nnc(CCC(=O)NCc3nc4ccccc4s3)o2)c1 |  | inconclusive: 37.7 µM [inhibitor, single point]
24 | O=c1cc(N2CCCCC2)c(-c2ccccc2)nn1Cc1cccc(F)c1 |  | inconclusive: 8.44 µM [inhibitor, single point]

Row | SMILES | max response, negative = inhibition | Potency
25 | COc1ccc(S(=O)(=O)C(C#N)c2nc3ccccc3nc2N2CCCC(C)C2)cc1 (configuration not stated) |  | inconclusive: 29.9 µM [inhibitor, partial curve]
26 | Cc1cc(-c2csc(NCc3ccccc3)n2)c(C)n1C | inactive: -12.5% | 
27 | Cc1cc(C(=O)N2CCC2(C)C(=O)Nc2ccc3[nH]ncc3c2)nn1C (configuration not stated) | inactive: 3.57% | 
28 | CN1C(=O)C(N=Nc2ccc([N+](=O)[O-])cc2)SC1=S (configuration not stated) |  | active: 13.4 µM
29 | CCOc1cc(/C=C\[N+](=O)[O-])ccc1OCC(=O)Nc1ccccc1C |  | inconclusive: 1.34 µM [inhibitor, full curve]
30 | Nc1ccccc1SC(CC(=O)c1ccccc1)c1ccccc1 (configuration not stated) | inconclusive: 0% [inhibitor] | 
31 | C/C(=N/NC(=O)c1cc(C)[nH]n1)c1ccco1 | inactive: -6.59% | 
32 | O=C1CCC(C(=O)OC(C(=O)c2c[nH]c3ccccc23)c2ccccc2)=NN1 (configuration not stated) |  | inconclusive: 7.52 µM [inhibitor, partial curve]
33 | O=C(Nc1ccc(F)c(Cl)c1)Nc1nnc([C@@H]2O[C@H](CO)[C@@H](O)[C@H]2O)s1 | inactive: -6.35% | 
34 | O=S(=O)(Nc1cccc(S(=O)(=O)N2CCCCC2)c1)c1ccccc1F |  | inconclusive: 33.6 µM [inhibitor, partial curve]
35 | O=C(O)c1ccc(-c2nc(-c3ccccc3)c(-c3ccccc3)[nH]2)cc1 |  | inconclusive: 29.9 µM [inhibitor, partial curve]
36 | CC(=O)c1ccc(S(=O)(=O)N2CCN(C(=O)CSc3ccc(F)cc3)CC2)cc1 |  | inconclusive: 18.9 µM [inhibitor, partial curve]
37 | CC1CCCCC1NC(=O)CCS(=O)(=O)c1ccc2c(c1)NC(=O)CS2 (configuration not stated) |  | inconclusive: 26.7 µM [inhibitor, partial curve]
38 | O=C1CCCC(=O)C1C(=O)C1CCN(S(=O)(=O)c2ccccc2)CC1 |  | inconclusive: 21.2 µM [inhibitor, partial curve]
39 | Cc1cc(C)cc(N2C(=O)CSC2c2cccs2)c1 (configuration not stated) |  | inconclusive: 26.7 µM [inhibitor, single point]
40 | COc1ccc(C)cc1NC(=O)C1CCCCC1C(=O)O (configuration not stated) |  | inconclusive: 29.9 µM [inhibitor, single point]
41 | CCOc1ccc(-n2c(CCc3ccccc3)n[nH]c2=S)cc1 | inactive: -7.05% | 
42 | COc1ccc(C(O)c2nc3ccccc3n2C(C)C)cc1 (configuration not stated) |  | active: 23.8 µM
43 | O=C1/C(=C/c2ccccc2)SC(=S)N1N1C(=O)C2CC2C1=O (configuration not stated) | inactive: -21.7% | 
44 | O=C(Nc1nc2ccc(SC(F)F)cc2s1)c1ccc(NS(=O)(=O)c2ccc(F)c(F)c2)cc1 |  | inconclusive: 33.6 µM [inhibitor, single point]
45 | CCOc1cc(/C=N/NC(=O)c2ccccn2)ccc1OC(=O)c1cccs1 | inactive: 6.14% | 
46 | Nc1cc(=O)[nH]c(SCC(=O)N2CCCC2)n1 | inactive: -7.27% | 
47 | O=S(=O)(NN1CCOCC1)c1ccc(Cl)s1 |  | active: 21.2 µM
48 | CCc1ccccc1N1CSC2=C(C#N)C(c3cc(OC)c(OC)cc3OC)CC(=O)N2C1 (configuration not stated) |  | active: 15 µM

Shown with tabs: part of the list above.
Row	SMILES	max response, negative = inhibition	Potency
12	C=C1c2cccc(O)c2C(=O)C2C(=O)[C@]3(O)C(=O)C(C(N)=O)C(=O)[C@@H](N(C)C)[C@@H]3[C@@H](O)[C@H]12 (some centres not stated)		inconclusive: 26.7 µM [inhibitor, single point]
13	CC1CCc2nn(CC(=O)NCc3ccco3)cc2C1 (configuration not stated)		active: 29.9 µM
14	COc1ccccc1Cn1c(=S)[nH]c2ccccc2c1=O	inactive: -15.3%	
15	CCN1CCN(C(=S)c2ccc(OCC(=O)NCc3ccccc3)cc2)CC1		active: 10.6 µM
16	N[C@@H](C(=O)N[C@@H]1C(=O)N2C(C(=O)O)=C(Cl)CS[C@H]12)c1ccccc1		active: 26.7 µM
17	Cn1c(-c2sc(=S)n(-c3ccccc3)c2N)nc2ccccc21		inconclusive: 29.9 µM [inhibitor, single point]
18	Cc1ccc(N(CC(=O)NCC2CCCO2)C(=O)CCC(=O)Nc2ccccn2)cc1 (configuration not stated)		inconclusive: 21.2 µM [inhibitor, partial curve]
19	Cc1ccc2c(c1)nnn2C1CCN(C(=O)C2CCCCC2)CC1	inactive: -0.941%	
20	CN(C)CC(=O)Nc1nc(-c2ccccc2)cs1		inconclusive: 21.2 µM [inhibitor, single point]
21	O=C(N/N=C/c1cccc(Oc2ccccc2)c1)c1ccncc1		inconclusive: 26.7 µM [inhibitor, single point]
22	Cc1cc(S(=O)(=O)N2CCCC(N3CCOCC3)C2)c(C)cc1Cl (configuration not stated)		inconclusive: 21.2 µM [inhibitor, partial curve]
23	COc1ccc(OC)c(Cc2nnc(CCC(=O)NCc3nc4ccccc4s3)o2)c1		inconclusive: 37.7 µM [inhibitor, single point]
24	O=c1cc(N2CCCCC2)c(-c2ccccc2)nn1Cc1cccc(F)c1		inconclusive: 8.44 µM [inhibitor, single point]
25	COc1ccc(S(=O)(=O)C(C#N)c2nc3ccccc3nc2N2CCCC(C)C2)cc1 (configuration not stated)		inconclusive: 29.9 µM [inhibitor, partial curve]
26	Cc1cc(-c2csc(NCc3ccccc3)n2)c(C)n1C	inactive: -12.5%	
27	Cc1cc(C(=O)N2CCC2(C)C(=O)Nc2ccc3[nH]ncc3c2)nn1C (configuration not stated)	inactive: 3.57%	
28	CN1C(=O)C(N=Nc2ccc([N+](=O)[O-])cc2)SC1=S (configuration not stated)		active: 13.4 µM

Next part

Row | SMILES | max response, negative = inhibition | Potency
49 | COc1cc(C)c(CN2CCN(C(=O)CCC(=O)c3ccc(C)s3)CC2)cc1OC |  | inconclusive: 29.9 µM [inhibitor, partial curve]
50 | O=C(/C=C/c1ccc(Cl)cc1Cl)c1cccnc1 |  | inconclusive: 26.7 µM [inhibitor, partial curve]
51 | C[C@@H](C(=O)N[C@@H](Cc1c[nH]c2ccccc12)C(=O)O)n1nnc2ccccc2c1=O |  | active: 29.9 µM
52 | CCN(CC)c1ccc(CNc2nc3ccccc3n2C(C)C)cc1 |  | active: 18.9 µM
53 | Cc1ccc(C(=O)Nc2ccc(Oc3ccc(C(=O)O)c(C(=O)O)c3)cc2)cc1C |  | inconclusive: 21.2 µM [inhibitor, partial curve]
54 | CN(C)S(=O)(=O)c1ccc(=S)[nH]c1 |  | active: 23.8 µM
55 | CC1CCc2sc(C(=O)NN=C3CCC(c4ccccc4)CC3)cc2C1 (configuration not stated) |  | inconclusive: 23.8 µM [inhibitor, partial curve]
56 | O=c1oc2ccccc2c(Cl)c1CN1CCCCC1 |  | active: 11.9 µM
57 | O=C1C(=Cc2cn(-c3ccccc3)nc2-c2ccc(OCc3ccccc3)cc2)SC(=S)N1CCS(=O)(=O)O |  | inconclusive: 29.9 µM [inhibitor, partial curve]
58 | Cc1sc2nc(C3CC3)nc(SCC(=O)N3CCc4ccccc4C3)c2c1C | inconclusive: -34.1% [inhibitor] | 
59 | O=c1cc(CSc2ccccc2)[nH]c(=S)[nH]1 | inactive: -16.3% | 
60 | Cc1cc(N2CCN(C)CC2)nc2ccc(NC(=S)N3CCN(c4ccc(Cl)cc4)CC3)cc12 | inactive: -13.6% | 
61 | CN(C(=O)COc1ccccc1)C1CCS(=O)(=O)C1 (configuration not stated) |  | inconclusive: 29.9 µM [inhibitor, single point]
62 | COCCCN1CCc2[nH]c(=S)[nH]c(=O)c2C1 | inactive: -12.8% | 
63 | CCOc1ccc(-n2c(-c3ccc(OC)cc3)c[n+]3c2CCCCC3)cc1 | inactive: 1.15% | 
64 | Cc1ccccc1OCC(=O)N/N=C/c1ccc(N2CCOCC2)o1 |  | inconclusive: 21.2 µM [inhibitor, partial curve]
65 | CCn1c(COc2cccc(C)c2)nnc1SCC(=O)NC1CCCC1 |  | active: 29.9 µM
66 | O=C(c1c(F)cccc1F)N1CCC(O)(c2cccnc2)CC1 |  | inconclusive: 23.8 µM [inhibitor, partial curve]
67 | O=C1C(c2ccccc2)=[N+]([O-])c2ccccc21 |  | active: 0.168 µM
68 | O=C1NC(=O)C(c2ccc(Cl)cc2Cl)N1 (configuration not stated) | inactive: -2.67% | 
69 | COc1cccc(NC(=O)CN(C)C(=O)CSC(=S)N2CCCC2)c1 |  | inconclusive: 26.7 µM [inhibitor, partial curve]
70 | CCCCC1=CC2=CC(=O)C(C)(OC(=O)CCc3ccccc3)C(=O)C2=CO1 (configuration not stated) |  | inconclusive: 23.8 µM [inhibitor, single point]
71 | COc1ccc(C(=O)Oc2cc(N)n(S(=O)(=O)c3ccccc3)n2)cc1 |  | inconclusive: 7.52 µM [inhibitor, single point]
72 | O=C(NCC#CCOCc1ccccc1)c1ccccc1 |  | active: 26.7 µM

From PubChem BioAssay AID720504 (National Center for Advancing Translational Sciences (NCATS), 2013)
